The values below come from paper PMC11786360.

By UniProt entry, the sequences of proteins in these tests, tags left out.
UniProt P45974: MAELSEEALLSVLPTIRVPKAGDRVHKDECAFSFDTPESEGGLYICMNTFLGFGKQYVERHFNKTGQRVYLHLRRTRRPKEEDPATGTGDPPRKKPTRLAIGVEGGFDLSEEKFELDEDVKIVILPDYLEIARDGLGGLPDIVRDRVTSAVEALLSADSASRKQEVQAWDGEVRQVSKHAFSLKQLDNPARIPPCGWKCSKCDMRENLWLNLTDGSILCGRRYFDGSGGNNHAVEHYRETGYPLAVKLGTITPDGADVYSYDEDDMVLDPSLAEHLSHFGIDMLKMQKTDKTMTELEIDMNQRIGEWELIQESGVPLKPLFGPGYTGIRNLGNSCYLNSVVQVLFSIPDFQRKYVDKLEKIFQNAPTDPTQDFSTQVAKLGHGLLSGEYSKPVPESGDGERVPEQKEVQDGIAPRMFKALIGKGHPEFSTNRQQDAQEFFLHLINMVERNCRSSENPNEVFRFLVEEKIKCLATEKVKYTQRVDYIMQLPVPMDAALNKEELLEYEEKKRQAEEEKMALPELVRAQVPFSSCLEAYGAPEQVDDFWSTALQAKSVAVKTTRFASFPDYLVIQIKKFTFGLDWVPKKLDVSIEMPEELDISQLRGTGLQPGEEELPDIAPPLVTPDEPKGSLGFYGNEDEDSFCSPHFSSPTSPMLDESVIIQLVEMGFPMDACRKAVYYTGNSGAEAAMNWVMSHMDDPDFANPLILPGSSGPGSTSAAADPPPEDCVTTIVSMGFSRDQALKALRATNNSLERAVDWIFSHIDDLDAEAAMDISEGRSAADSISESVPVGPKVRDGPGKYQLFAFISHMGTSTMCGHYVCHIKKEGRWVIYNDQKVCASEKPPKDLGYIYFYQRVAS

The target in this assay is T1, low-density lipoprotein receptor-related protein 11 (LRP11), endogenous (human (endogenous in Hep3B)) (UniProt Q86VZ4).
T1 sequence: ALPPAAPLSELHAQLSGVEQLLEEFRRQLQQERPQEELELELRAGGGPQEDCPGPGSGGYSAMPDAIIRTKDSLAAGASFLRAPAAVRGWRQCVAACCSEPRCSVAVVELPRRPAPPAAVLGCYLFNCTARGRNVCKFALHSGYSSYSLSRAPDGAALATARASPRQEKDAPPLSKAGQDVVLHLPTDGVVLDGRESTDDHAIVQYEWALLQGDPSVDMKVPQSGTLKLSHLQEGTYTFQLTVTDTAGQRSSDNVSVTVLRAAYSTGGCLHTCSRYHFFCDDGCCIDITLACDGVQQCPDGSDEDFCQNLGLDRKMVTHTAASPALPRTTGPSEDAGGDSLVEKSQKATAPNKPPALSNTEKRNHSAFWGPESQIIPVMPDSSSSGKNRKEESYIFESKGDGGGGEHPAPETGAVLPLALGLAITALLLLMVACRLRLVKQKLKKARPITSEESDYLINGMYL
The assay can be described thus: affinity purification with mass spectrometry; IP from total protein of Hep3B cells with anti-LRP11 antibody (sc-514698) and protein A/G agarose beads; silver staining and mass spectrometry.

No constants are given. Whether binding was seen depends on the method and setting. Binding seen in cells or lysates may run through a third protein. A yes stands for co-enrichment or nearness to the bait. Other partners may have been found.

Consider “Ubiquitin specific peptidase 5 (USP5), endogenous (from UniProt P45974 1-858) (enzyme)”, for which the binding result is reported as “binds”.
